PubChem BioAssay AID504764 – Drosophila RNAi Screening Center – 2011
In all, the deposit lists about 22,000 reagents; shown is a random part of those that have a named target and a result. Of all reagents, 403 (1.9%) are marked active. 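Unnormalised raw counts per well; ratio z-scores behind the hit calls and whether each hit raises or lowers signal are not deposited.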 The record does not give: the amount of reagent.

- Test: 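Genes whose knock-down alters Notch-dependent transcription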 (primary screen)
- System: Drosophila Kc167 cells
- Knock-down reagent: long dsRNA against Drosophila genes
- Timing: about 5 days (4 days dsRNA, then 24 h after transfection)
- Conditions: transfection of constitutively active membrane-tethered Notch lacking the extracellular domain, read 24 h later
- Read-out: 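Light from a Notch-responsive E(spl)m3 luciferase reporter under active Notch, with control-promoter and no-Notch reporter wells to normalise; raw counts from paired wells a and b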
- Reading the numbers: induced reporter light, run 1, well a and induced reporter light, run 1, well b: higher = more light from the Notch target reporter with active Notch; control promoter light, run 1, well a and control promoter light, run 1, well b: higher = more light from the viral control promoter (cell number, transfection, viability); uninduced reporter light, run 1, well a: higher = more light from the Notch target reporter without active Notch
- Hit rule: 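Wells with low control signal or poorly matching duplicates excluded; duplicates averaged; per source plate, z beyond ±2 for induced/control log2 ratio or beyond ±1.8 for induced/uninduced marks a hit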
- Meaning of the calls: active = modifier hit (raised or lowered Notch signal); inactive = not a hit

| gene | dsRNA | induced reporter light, run 1, well a | induced reporter light, run 1, well b | control promoter light, run 1, well a | control promoter light, run 1, well b | uninduced reporter light, run 1, well a | outcome |
| --- | --- | --- | --- | --- | --- | --- | --- |
| HPS4 | DRSC06906 | 81585 | 93345 | 1.22e5 | 93330 | 9032 | inactive |
| mRpS6 | DRSC08470 | 2.79e5 | 2.70e5 | 4.02e5 | 3.54e5 | 15185 | inactive |
| nudC | DRSC11096 | 1.05e5 | 1.11e5 | 1.15e5 | 93470 | 6855 | inactive |
| nudC | DRSC11097 | 1.59e5 | 1.57e5 | 1.79e5 | 1.79e5 | 11860 | inactive |
| AsnRS | DRSC01990 | 1.72e5 | 1.84e5 | 1.29e5 | 1.45e5 | 13925 | inactive |
| CG34408 | DRSC17733 | 1.81e5 | 1.85e5 | 2.06e5 | 1.73e5 | 11980 | inactive |
| CG34408 | DRSC21926 | – | – | – | – | – | inactive |
| CG11168 | DRSC14292 | 2.03e5 | 1.80e5 | 2.06e5 | 2.34e5 | 14290 | inactive |
| Erk7 | DRSC18127 | 1.14e5 | 1.16e5 | 2.04e5 | 1.66e5 | 8092 | inactive |
| Erk7 | DRSC18227 | 1.11e5 | 1.00e5 | 2.14e5 | 1.89e5 | 7570 | inactive |
| Cnb | DRSC08569 | 68110 | 70785 | 1.04e5 | 1.22e5 | 5195 | inactive |
| Pak | DRSC12602 | 1.07e5 | 1.22e5 | 51135 | 48470 | 10610 | inactive |
| Mnn1 | DRSC03368 | 2.05e5 | 1.47e5 | 1.77e5 | 1.64e5 | 10125 | inactive |
| CG13458 | DRSC10005 | 1.15e5 | 1.07e5 | 65080 | 71215 | 10155 | inactive |
| Idh3g | DRSC15699 | 1.46e5 | 1.40e5 | 2.07e5 | 1.87e5 | 10915 | inactive |
| CG7579 | DRSC10885 | 1.75e5 | 1.71e5 | 2.01e5 | 1.73e5 | 7610 | inactive |
| Su(var)3-3 | DRSC10250 | 98535 | 91195 | 51075 | 51335 | 8450 | inactive |
| CheA29a | DRSC21486 | – | – | – | – | – | inactive |
| Ocho | DRSC11239 | 1.77e5 | 2.00e5 | 2.41e5 | 2.51e5 | 9815 | inactive |
| LanB2 | DRSC11208 | 87420 | 1.02e5 | 65805 | 35275 | 10478 | inactive |
| CG34223 | DRSC05268 | 1.81e5 | 2.30e5 | 2.65e5 | 3.14e5 | 24082 | inactive |
| lncRNA:CR32657 | DRSC19403 | 1.53e5 | 1.64e5 | 2.62e5 | 3.03e5 | 11935 | inactive |
| CG15879 | DRSC08487 | 1.19e5 | 1.49e5 | 2.19e5 | 1.95e5 | 6828 | inactive |
| Atg101 | DRSC20020 | 73450 | 99235 | 88360 | 99205 | 8470 | inactive |
| CG6565 | DRSC02970 | 2.09e5 | 1.83e5 | 1.86e5 | 1.75e5 | 13078 | inactive |

Next part (2 carried over from the part before).
| gene | dsRNA | induced reporter light, run 1, well a | induced reporter light, run 1, well b | control promoter light, run 1, well a | control promoter light, run 1, well b | uninduced reporter light, run 1, well a | outcome |
| --- | --- | --- | --- | --- | --- | --- | --- |
| Atg101 | DRSC20020 | 73450 | 99235 | 88360 | 99205 | 8470 | inactive |
| CG6565 | DRSC02970 | 2.09e5 | 1.83e5 | 1.86e5 | 1.75e5 | 13078 | inactive |
| CG7512 | DRSC10863 | 2.50e5 | 1.90e5 | 2.71e5 | 2.03e5 | 11480 | inactive |
| CG13474 | DRSC10018 | 2.00e5 | 2.20e5 | 2.81e5 | 2.11e5 | 6770 | inactive |
| CG13564 | DRSC04201 | 1.49e5 | 1.54e5 | 1.69e5 | 1.50e5 | 11870 | inactive |
| CG17712 | DRSC00266 | 1.92e5 | 1.76e5 | 1.45e5 | 1.72e5 | 16532 | inactive |
| gNacalpha | DRSC00654 | 1.16e5 | 1.14e5 | 1.19e5 | 1.01e5 | 11425 | inactive |
| Dd | DRSC20539 | 1.43e5 | 1.18e5 | 97550 | 78755 | 7892 | inactive |
| Obp56d | DRSC06064 | 1.37e5 | 89495 | 1.15e5 | 97740 | 6730 | inactive |
| CG13319 | DRSC06356 | 1.99e5 | 1.97e5 | 2.86e5 | 2.81e5 | 15145 | inactive |
| Cyp303a1 | DRSC03300 | 1.22e5 | 1.20e5 | 1.32e5 | 1.50e5 | 9060 | inactive |
| CG1602 | DRSC06601 | 2.11e5 | 1.81e5 | 2.31e5 | 1.99e5 | 16610 | inactive |
| GPHR | DRSC07075 | 91710 | 95590 | 1.21e5 | 1.05e5 | 8370 | inactive |
| TwdlR | DRSC14736 | 1.64e5 | 1.19e5 | 2.12e5 | 2.19e5 | 13185 | inactive |
| Pgant7 | DRSC19991 | 1.65e5 | 1.50e5 | 1.43e5 | 74570 | 11205 | inactive |
| spi | DRSC03618 | 72770 | 47580 | 55340 | 56335 | 3155 | inactive |
| Lk | DRSC10022 | 1.54e5 | 2.03e5 | 2.21e5 | 2.11e5 | 7400 | inactive |
| CG13305 | DRSC09975 | 43910 | 36860 | 34015 | 38255 | 4705 | inactive |
| CG10969 | DRSC09811 | 1.96e5 | 1.76e5 | 2.19e5 | 1.92e5 | 11445 | inactive |
| CG7523 | DRSC16254 | 27135 | 32685 | 27685 | 27075 | 3075 | inactive |
| Rgl | DRSC11267 | 50210 | 41775 | 53545 | 61480 | 6625 | inactive |
| CG16898 | DRSC06635 | 1.06e5 | 1.02e5 | 1.45e5 | 1.39e5 | 12635 | inactive |
| CG15056 | DRSC19630 | 82655 | 76395 | 92920 | 67105 | 9410 | inactive |
| CG2604 | DRSC12313 | 1.11e5 | 1.01e5 | 96790 | 1.03e5 | 7288 | inactive |
| HGTX | DRSC09319 | 1.71e5 | 1.85e5 | 2.02e5 | 2.38e5 | 20790 | inactive |
| HGTX | DRSC11181 | 1.34e5 | 1.19e5 | 1.76e5 | 1.77e5 | 6282 | inactive |
| CG30099 | DRSC07039 | 50025 | 37720 | 31585 | 39540 | 3828 | inactive |
